Measured values: patent US20050053985A1
No constants are given. Whether binding was seen depends on the method and setting. In cells and extracts the contact can be indirect. Some results given as binding are weak or reduced against the parent protein; the word gives no strength.

Experiments:
[1] = target: T1, Symplekin (human) (UniProt Q92797); assay: co-purification with the His-Flag-tagged bait from stable 293 cells (anti-Flag beads, then Ni beads); SDS-PAGE, Western blot with anti-Symplekin antibody
T1 sequence (looked up): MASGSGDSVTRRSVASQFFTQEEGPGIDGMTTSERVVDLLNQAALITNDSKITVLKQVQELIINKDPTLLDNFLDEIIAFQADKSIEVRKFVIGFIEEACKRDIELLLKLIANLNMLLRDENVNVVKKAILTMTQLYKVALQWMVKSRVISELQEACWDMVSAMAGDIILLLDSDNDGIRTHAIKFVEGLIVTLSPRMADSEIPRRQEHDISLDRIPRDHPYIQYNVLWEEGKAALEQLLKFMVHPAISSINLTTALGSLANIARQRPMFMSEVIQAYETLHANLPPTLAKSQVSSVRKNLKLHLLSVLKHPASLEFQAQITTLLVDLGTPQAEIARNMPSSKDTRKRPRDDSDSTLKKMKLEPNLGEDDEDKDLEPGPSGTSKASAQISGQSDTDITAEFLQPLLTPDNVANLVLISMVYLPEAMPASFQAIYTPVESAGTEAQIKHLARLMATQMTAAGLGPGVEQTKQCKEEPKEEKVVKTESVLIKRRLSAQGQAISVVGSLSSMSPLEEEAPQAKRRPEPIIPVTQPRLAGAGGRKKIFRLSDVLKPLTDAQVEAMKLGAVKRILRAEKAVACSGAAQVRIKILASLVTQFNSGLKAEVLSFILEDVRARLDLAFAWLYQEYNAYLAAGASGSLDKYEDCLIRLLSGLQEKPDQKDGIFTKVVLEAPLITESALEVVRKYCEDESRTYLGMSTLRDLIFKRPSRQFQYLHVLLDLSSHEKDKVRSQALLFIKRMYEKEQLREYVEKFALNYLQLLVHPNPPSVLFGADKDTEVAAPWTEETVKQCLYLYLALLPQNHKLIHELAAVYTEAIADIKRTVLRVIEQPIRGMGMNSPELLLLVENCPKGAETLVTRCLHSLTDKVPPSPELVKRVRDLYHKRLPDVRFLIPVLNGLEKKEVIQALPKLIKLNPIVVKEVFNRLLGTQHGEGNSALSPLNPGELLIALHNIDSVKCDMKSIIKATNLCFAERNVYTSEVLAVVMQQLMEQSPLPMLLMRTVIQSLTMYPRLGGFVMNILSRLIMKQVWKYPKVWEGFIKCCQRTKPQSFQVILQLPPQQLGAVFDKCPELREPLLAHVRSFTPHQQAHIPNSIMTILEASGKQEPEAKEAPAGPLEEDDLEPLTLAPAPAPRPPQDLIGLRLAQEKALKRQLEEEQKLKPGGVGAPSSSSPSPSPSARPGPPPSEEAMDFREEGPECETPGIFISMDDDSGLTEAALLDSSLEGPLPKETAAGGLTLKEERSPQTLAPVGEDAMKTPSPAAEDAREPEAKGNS

[2] = target: T2, CstF64 (64 kD subunit 2) (human) (UniProt P33240); assay: co-purification with the His-Flag-tagged bait from stable 293 cells (anti-Flag beads, then Ni beads); SDS-PAGE, Western blot with anti-CstF64 antibody
T2 sequence (looked up): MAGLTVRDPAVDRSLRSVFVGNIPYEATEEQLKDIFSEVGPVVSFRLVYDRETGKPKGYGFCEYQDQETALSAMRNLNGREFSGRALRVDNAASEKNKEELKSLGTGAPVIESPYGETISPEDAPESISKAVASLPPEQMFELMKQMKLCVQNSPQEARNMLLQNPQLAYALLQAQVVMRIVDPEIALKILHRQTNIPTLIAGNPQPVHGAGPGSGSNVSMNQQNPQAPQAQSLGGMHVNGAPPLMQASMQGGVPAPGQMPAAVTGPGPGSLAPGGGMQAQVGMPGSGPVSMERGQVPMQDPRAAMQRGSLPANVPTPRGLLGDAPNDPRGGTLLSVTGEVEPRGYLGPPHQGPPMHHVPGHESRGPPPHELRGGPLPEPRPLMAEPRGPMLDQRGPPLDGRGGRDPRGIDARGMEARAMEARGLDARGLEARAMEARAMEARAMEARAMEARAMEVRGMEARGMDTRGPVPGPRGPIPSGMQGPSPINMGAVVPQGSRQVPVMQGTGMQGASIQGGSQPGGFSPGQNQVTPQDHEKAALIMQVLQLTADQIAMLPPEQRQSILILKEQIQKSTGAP

[3] = target: T1, Symplekin (human); assay: co-purification (anti-Flag then Ni beads), SDS-PAGE, Western blot
[4] = target: T2, CstF64 (64 kD subunit 2) (human); assay: as above
[5] = target: CPSF30 (30 kD factor 4) (human) (UniProt O95639); assay: as above
[6] = target: CPSF30 (30 kD factor 4) (human) (UniProt O95639); assay: co-purification with the His-Flag-tagged bait from stable 293 cells (anti-Flag beads, then Ni beads); SDS-PAGE, Western blot with anti-CPSF30 antibody
[7] = target: T1, Symplekin (human); assay: co-purification with His-Flag-tagged subunits, Western blot
[8] = target: T2, CstF64 (64 kD subunit 2) (human); assay: as above
[9] = target: T3, HsSen54 (human) (UniProt Q7Z6J9); assay: co-purification with the His-Flag-tagged bait from stable 293 cells (anti-Flag beads, then Ni beads); SDS-PAGE, silver staining
T3 sequence (looked up): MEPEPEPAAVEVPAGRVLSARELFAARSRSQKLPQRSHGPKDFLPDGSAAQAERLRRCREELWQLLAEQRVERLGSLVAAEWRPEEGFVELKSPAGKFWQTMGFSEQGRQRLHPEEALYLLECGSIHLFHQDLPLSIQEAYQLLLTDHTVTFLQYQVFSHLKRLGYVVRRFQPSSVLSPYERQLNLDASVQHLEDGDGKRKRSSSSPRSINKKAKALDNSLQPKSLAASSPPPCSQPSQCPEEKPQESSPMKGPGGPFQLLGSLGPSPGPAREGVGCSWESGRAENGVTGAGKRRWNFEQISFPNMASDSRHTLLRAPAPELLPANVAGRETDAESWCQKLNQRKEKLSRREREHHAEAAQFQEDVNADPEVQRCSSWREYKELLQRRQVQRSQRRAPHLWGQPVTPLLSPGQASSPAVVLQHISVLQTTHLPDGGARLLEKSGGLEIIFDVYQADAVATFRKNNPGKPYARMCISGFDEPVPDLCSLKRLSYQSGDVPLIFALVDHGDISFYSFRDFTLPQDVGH

[10] = target: T4, HsSen15 (human) (UniProt Q8WW01); assay: co-purification (anti-Flag then Ni beads), SDS-PAGE, silver staining
T4 sequence (looked up): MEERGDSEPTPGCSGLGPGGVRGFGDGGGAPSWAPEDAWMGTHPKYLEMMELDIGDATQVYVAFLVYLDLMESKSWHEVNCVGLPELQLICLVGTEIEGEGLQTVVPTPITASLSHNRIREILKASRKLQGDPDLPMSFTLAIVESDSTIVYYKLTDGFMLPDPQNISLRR

[11] = target: T4, HsSen15 (human); assay: co-purification (anti-Flag then Ni beads), SDS-PAGE, silver staining, peptide sequencing
[12] = target: T4, HsSen15 (human); assay: co-purification (anti-Flag then Ni beads), gel electrophoresis
[13] = target: T4, HsSen15 (human); assay: co-purification with the His-Flag-tagged bait from stable 293 cells (anti-Flag beads, then Ni beads); SDS-PAGE, silver staining
[14] = target: T5, HsSen34 (human) (UniProt Q9BSV6); assay: co-purification (anti-Flag then Ni beads), SDS-PAGE, silver staining
T5 sequence (looked up): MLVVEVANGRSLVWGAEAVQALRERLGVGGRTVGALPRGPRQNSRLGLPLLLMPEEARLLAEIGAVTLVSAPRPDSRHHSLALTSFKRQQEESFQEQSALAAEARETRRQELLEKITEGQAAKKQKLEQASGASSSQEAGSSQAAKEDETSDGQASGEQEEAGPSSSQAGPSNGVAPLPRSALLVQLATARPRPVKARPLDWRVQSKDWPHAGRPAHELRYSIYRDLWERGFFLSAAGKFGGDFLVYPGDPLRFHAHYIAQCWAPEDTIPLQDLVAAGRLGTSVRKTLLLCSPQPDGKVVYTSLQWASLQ

[15] = target: T6, HsClp1 (human) (UniProt Q92989); assay: co-purification (anti-Flag then Ni beads), gel electrophoresis
T6 sequence (looked up): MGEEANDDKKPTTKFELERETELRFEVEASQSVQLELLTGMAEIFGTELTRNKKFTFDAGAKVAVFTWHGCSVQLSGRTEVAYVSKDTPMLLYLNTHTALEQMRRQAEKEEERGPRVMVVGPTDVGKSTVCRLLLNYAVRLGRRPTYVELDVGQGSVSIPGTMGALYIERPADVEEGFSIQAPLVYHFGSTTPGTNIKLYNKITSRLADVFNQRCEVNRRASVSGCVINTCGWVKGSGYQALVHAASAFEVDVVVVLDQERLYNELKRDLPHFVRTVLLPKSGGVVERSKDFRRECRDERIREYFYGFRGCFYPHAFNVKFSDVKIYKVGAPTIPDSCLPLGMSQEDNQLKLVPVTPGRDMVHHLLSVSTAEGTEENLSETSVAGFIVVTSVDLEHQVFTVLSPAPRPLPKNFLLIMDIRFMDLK

[16] = target: T6, HsClp1 (human); assay: co-purification with tagged subunits
[17] = target: T6, HsClp1 (human); assay: co-purification with the His-Flag-tagged bait from stable 293 cells (anti-Flag beads, then Ni beads); SDS-PAGE, silver staining
[18] = target: T5, HsSen34 (human); assay: as above
[19] = target: T7, HsSen2 (human) (UniProt Q8NCE0); assay: co-purification (anti-Flag then Ni beads), SDS-PAGE, silver staining
T7 sequence (looked up): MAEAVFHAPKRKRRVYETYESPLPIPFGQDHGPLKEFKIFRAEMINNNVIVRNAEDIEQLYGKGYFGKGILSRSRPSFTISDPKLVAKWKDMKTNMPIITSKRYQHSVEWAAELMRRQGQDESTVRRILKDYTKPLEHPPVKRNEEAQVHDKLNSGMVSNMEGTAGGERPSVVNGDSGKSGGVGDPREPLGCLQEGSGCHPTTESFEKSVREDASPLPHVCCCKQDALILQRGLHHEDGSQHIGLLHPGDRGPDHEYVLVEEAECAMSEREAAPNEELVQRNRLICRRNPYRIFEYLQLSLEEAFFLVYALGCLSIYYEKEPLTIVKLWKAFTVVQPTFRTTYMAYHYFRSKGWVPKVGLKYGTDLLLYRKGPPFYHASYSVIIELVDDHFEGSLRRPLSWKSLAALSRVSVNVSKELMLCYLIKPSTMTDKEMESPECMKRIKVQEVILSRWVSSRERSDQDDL

[20] = target: T7, HsSen2 (human); assay: co-purification with the His-Flag-tagged bait from stable 293 cells (anti-Flag beads, then Ni beads); SDS-PAGE, silver staining

binding [1]	binding [2]	binding [3]	binding [4]	binding [5]	binding [6]	binding [7]	binding [8]	binding [9]	binding [10]	binding [11]	binding [12]	binding [13]	binding [14]	binding [15]	binding [16]	binding [17]	binding [18]	binding [19]	binding [20]	Substance
binds	binds	binds	binds	binds	binds	binds	binds	binds												His-Flag-HsSen2deltaEx8 (from UniProt Q8NCE0 1-465)
binds	binds	binds	binds	binds					binds	binds	binds	binds								His-Flag-HsSen34 (from UniProt Q9BSV6 1-310)
binds	binds	binds	binds	binds		binds	binds	binds	binds	binds	binds	binds	binds	binds	binds	binds	binds			His-Flag-HsSen2 (from UniProt Q8NCE0 1-465)
binds	binds	binds	binds	binds									binds			binds	binds	binds	binds	His-Flag-HsSen15 (from UniProt Q8WW01 1-171)
